In patent US20250025452A1 (Clearside Biomedical, Inc., priority 2023, published 2025):
At least one compound was matched to its structure with a doubt left. Some entries share one result that the patent states for a list of compounds.

Protein sequences, listed by entry. Tags and fused reporters are not part of them. Residues count along the entry.
UniProt P35968, 20-1356: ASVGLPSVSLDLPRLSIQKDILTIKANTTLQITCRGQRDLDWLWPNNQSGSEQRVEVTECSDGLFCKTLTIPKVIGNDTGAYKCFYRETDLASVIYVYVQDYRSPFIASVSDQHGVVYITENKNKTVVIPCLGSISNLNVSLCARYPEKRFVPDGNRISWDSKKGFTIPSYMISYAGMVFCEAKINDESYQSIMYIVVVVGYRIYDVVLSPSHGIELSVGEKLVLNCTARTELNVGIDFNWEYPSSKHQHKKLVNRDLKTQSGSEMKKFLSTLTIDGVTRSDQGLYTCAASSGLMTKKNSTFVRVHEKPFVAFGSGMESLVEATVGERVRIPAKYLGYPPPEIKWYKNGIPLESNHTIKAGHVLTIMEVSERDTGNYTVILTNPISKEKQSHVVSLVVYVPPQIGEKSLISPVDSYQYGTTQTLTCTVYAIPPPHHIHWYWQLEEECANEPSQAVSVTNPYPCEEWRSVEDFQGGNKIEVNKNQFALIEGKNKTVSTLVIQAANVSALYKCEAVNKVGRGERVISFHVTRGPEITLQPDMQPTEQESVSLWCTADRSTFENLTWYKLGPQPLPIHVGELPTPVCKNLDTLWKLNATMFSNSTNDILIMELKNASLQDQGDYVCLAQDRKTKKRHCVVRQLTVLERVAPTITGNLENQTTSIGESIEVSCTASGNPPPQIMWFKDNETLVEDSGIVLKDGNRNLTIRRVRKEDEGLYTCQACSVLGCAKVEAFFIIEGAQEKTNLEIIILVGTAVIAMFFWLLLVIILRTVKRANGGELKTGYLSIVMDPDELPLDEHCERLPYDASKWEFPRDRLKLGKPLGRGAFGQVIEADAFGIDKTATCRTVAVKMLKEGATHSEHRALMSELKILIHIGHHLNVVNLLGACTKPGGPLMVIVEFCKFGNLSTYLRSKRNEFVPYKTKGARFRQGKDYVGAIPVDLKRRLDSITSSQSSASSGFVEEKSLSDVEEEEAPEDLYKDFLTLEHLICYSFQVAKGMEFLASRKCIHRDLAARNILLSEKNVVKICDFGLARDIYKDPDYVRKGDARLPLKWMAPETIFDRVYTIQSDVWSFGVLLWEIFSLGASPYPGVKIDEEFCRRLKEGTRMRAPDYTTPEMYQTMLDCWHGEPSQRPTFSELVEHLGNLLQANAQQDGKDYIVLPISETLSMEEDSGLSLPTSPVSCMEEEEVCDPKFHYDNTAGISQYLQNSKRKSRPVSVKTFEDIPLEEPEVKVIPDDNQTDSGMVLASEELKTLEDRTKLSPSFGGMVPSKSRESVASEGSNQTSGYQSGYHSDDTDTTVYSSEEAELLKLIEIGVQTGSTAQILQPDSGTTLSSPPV

Assays:
[1] = Particle size (product profile); assay type: physicochemical; conditions: API
[2] = system: VEGF-mediated signaling and endothelial cell proliferation and survival; conditions: potently and selectively; cited from earlier work
VEGFR-2 = VEGFR-2 (Homo sapiens, UniProt P35968); conditions: metabolite relative to axitinib; cited from earlier work

Compound: CNC(=O)c1ccccc1Sc1ccc2c(/C=C/c3ccccn3)n[nH]c2c1 [Axitinib]
- Particle size (±2) D50 [1]: D50 - 2 μm
- Particle size (±2) D90 [1]: D90 - 3 μm
- concentration at which VEGF-mediated signaling and endothelial cell proliferation and survival are inhibited [2]: picomolar concentrations

Compound: CNC(=O)c1ccccc1Sc1ccc2c(/C=C/c3ccccn3)nn([C@@H]3O[C@H](C(=O)O)[C@@H](O)[C@H](O)[C@H]3O)c2c1 [M7]
- fold less potent against VEGFR-2 (VEGFR-2): ≥ 400 fold

Compound: CNC(=O)c1ccccc1[S+]([O-])c1ccc2c(C=Cc3ccccn3)n[nH]c2c1 (centres unmarked) [M12]
- fold less potent against VEGFR-2 (VEGFR-2): ≥ 400 fold
